In US11478478B2, “2,3-disubstituted 1-acyl-4-amino-1,2,3,4-tetrahydroquinoline derivatives and their use as bromodomain inhibitors” (GLAXOSMITHKLINE INTELLECTUAL PROPERTY (NO.2) LIMITED, priority 2013, dated 2022):
Some results were stated once for a whole list of compounds, not compound by compound.

Target: T1, BRD4 BD2 (Homo sapiens, UniProt O60885, Y97A)
T1 construct: BRD4 (1-477) (Y97A) and (Y390A); made in house; host or cells: E. coli (pET15b vector)
Assay: TR-FRET binding assay, BRD4 BD2 (BD1-mutated protein)
Details: BRD4 BD2 over BRD4 BD1; ≥1 log unit = at least 10 fold, ≥2 log unit = at least 100 fold selective
Protocol: Time Resolved Fluorescence Resonance Energy Transfer (TR-FRET) Assay Binding was assessed using a time resolved fluorescent resonance energy transfer binding assay. This utilises a 6 His purification tag at the N-terminal of the proteins as an epitope for an anti-6 His antibody labeled with Europium chelate (PerkinElmer AD0111) allowing binding of the Europium to the proteins which acts as the donor fluorophore. A small molecule, high affinity binder of the bromodomains BRD2, BRD3, BRD4 and BRDT has been labeled with Alexa Fluor647 (Reference Compound X) and this acts as the acceptor in the FRET pair.
In the absence of a competing compound, excitation of the Europium causes the donor to emit at λ618 nm which excites the Alexa labelled bromodomain binding compound leading to an increased energy transfer that is measurable at λ647 nM. In the presence of a sufficient concentration of a compound that can bind these proteins, the interaction is disrupted leading to a quantifiable drop in fluorescent resonance energy transfer.
The binding of the compounds of formula (I) to Bromodomains BRD2, BRD3, BRD4 and BRDT was assessed using mutated proteins to detect differential binding to either Binding Domain 1 (BD1) or Binding Domain 2 (BD2) on the bromodomain. These single residue mutations in the acetyl lysine binding pocket greatly lower the affinity of the fluoroligand (Reference Compound X) for the mutated domain (>1000 fold selective for the non-mutated domain). Therefore in the final assay conditions, binding of the fluoroligand to the mutated domain cannot be detected and subsequently the assay is suitable to determine the binding of compounds to the single non-mutated bromodomain.
Recombinant Human Bromodomains [(BRD2 (1-473) (Y113A) and (Y386A), BRD3 (1-435) (Y73A) and (Y348A) BRD4 (1-477) (Y97A) and (Y390A) and BRDT (1-397) (Y66A) and (Y309A)] were expressed in E. coli cells (in pET15b vector for BRD2/3/4 and in pET28a vector for BRDT) with a 6-His tag at the N-terminal. The His-tagged Bromodomain pellet was resuspended in 50 mM HEPES (pH7.5), 300 mM NaCl, 10 mM imidazole & 1 μl/ml protease inhibitor cocktail and extracted from the E. coli cells using sonication and purified using a nickel sepharose high performance column, the proteins were washed and then eluted with a linear gradient of 0-500 mM imidazole with buffer 50 mM HEPES (pH7.5), 150 mM NaCl, 500 mM imidazole, over 20 column volumes. Final purification was completed by Superdex 200 prep grade size exclusion column. Purified protein was stored at −80° C. in 20 mM HEPES pH 7.5 and 100 mM NaCl. Protein identity was confirmed by peptide mass fingerprinting and predicted molecular weight confirmed by mass spectrometry.
All assay components were dissolved in buffer composition of 50 mM HEPES pH7.4, 50 mM NaCl, 5% Glycerol, 1 mM DTT and 1 mM CHAPS. The final concentration of bromodomain proteins were 10 nM and the Alexa Fluor647 ligand was at Kd. These components were premixed and 5 μl of this reaction mixture was added to all wells containing 50 nl of various concentrations of test compound or DMSO vehicle (0.5% DMSO final) in Greiner 384 well black low volume microtitre plates and incubated in dark for 30 minutes at rt. 5 μl of detection mixture containing 1.5 nM final concentration anti-6His Europium chelate was added to all wells and a further dark incubation of at least 30 minutes was performed. Plates were then read on the Envision platereader, (λex=317 nm, donor λem=615 nm; acceptor λem=665 nm; Dichroic LANCE dual). Time resolved fluorescent intensity measurements were made at both emission wavelengths and the ratio of acceptor/donor was calculated and used for data analysis. All data was normalized to the mean of 16 high (inhibitor control—Example 11 of WO 2011/054846A1) and 16 low (DMSO) control wells on each plate. A four parameter curve fit of the following form was then applied: y=a+((b−a)/(1+(10^/10^)^d) […]

Row | Compound | Selectivity = BRD4 BD2 pIC50 − BRD4 BD1 pIC50 [log unit]
1 | CC[C@H]1[C@H](C)[C@@H](Nc2cccc(C)n2)c2cc(N3CCOCC3)ccc2N1C(C)=O (racemic) [Example 204, rac-1-((2S,3R,4R)-2-ethyl-3-methyl-4-((6-methylpyridin-2-yl)amino)-6-morpholino-3,4-dihydroquinolin-1(2H)-yl)ethanone] | ≥ 2
2 | CC[C@H]1[C@H](C)[C@@H](Nc2ccc(F)cn2)c2cc(N3CCOCC3)ccc2N1C(C)=O (racemic) [Example 207, rac-1-((2S,3R,4R)-2-ethyl-4-((5-fluoropyridin-2-yl)amino)-3-methyl-6-morpholino-3,4-dihydroquinolin-1(2H)-yl)ethanone] | ≥ 2
3 | CC(=O)N1c2ccc(N3CCN[C@@H](C)C3)cc2[C@H](Nc2ccc(C#N)cc2)[C@@H](C)[C@@H]1C1CC1 (racemic) [Example 223, 4-(((rac-2S,3R,4R)-1-acetyl-2-cyclopropyl-3-methyl-6-((S)-3-methylpiperazin-1-yl)-1,2,3,4-tetrahydroquinolin-4-yl)amino)benzonitrile] | ≥ 2
4 | CC(=O)N1c2ccc(N3CCN[C@H](C)C3)cc2[C@H](Nc2ccc(C#N)cc2)[C@@H](C)[C@@H]1C1CC1 (racemic) [Example 224, 4-(((rac-2S,3R,4R)-1-acetyl-2-cyclopropyl-3-methyl-6-((R)-3-methylpiperazin-1-yl)-1,2,3,4-tetrahydroquinolin-4-yl)amino)benzonitrile] | ≥ 2
5 | CC[C@@H]1[C@@H](C)[C@H](Nc2cccc(C)n2)c2cc(C(=O)NC)ccc2N1C(C)=O (racemic) [Example 235, rac-(2S,3R,4R)-1-acetyl-2-ethyl-N,3-dimethyl-4-((6-methylpyridin-2-yl)amino)-1,2,3,4-tetrahydroquinoline-6-carboxamide] | ≥ 2
6 | CNC(=O)c1ccc2c(c1)[C@H](Nc1cccc(C)n1)[C@@H](C)[C@H](C1CC1)N2C(C)=O (racemic) [Example 238, rac-(2S,3R,4R)-1-acetyl-2-cyclopropyl-N,3-dimethyl-4-((6-methylpyridin-2-yl)amino)-1,2,3,4-tetrahydroquinoline-6-carboxamide] | ≥ 2
7 | CNC(=O)c1ccc2c(c1)[C@H](Nc1ccc(C#N)cc1)[C@@H](C)[C@H](C1CC1)N2C(C)=O (racemic) [Example 243, rac-(2S,3R,4R)-1-acetyl-4-((4-cyanophenyl)amino)-2-cyclopropyl-N,3-dimethyl-1,2,3,4-tetrahydroquinoline-6-carboxamide] | ≥ 2
8 | CNC(=O)c1ccc2c(c1)[C@H](Nc1cccc(OC)n1)[C@@H](C)[C@H](C1CC1)N2C(C)=O (racemic) [Example 245, rac-(2S,3R,4R)-1-acetyl-2-cyclopropyl-4-((6-methoxypyridin-2-yl)amino)-N,3-dimethyl-1,2,3,4-tetrahydroquinoline-6-carboxamide] | ≥ 2
9 | CCNC(=O)c1ccc2c(c1)[C@H](Nc1cccc(C)n1)[C@@H](C)[C@H](CC)N2C(C)=O (racemic) [Example 279, rac-(2S,3R,4R)-1-acetyl-N,2-diethyl-3-methyl-4-((6-methylpyridin-2-yl)amino)-1,2,3,4-tetrahydroquinoline-6-carboxamide] | ≥ 2
10 | CC[C@H]1[C@H](C)[C@@H](Nc2cccc(C)n2)c2cc(C(=O)NC3CCNCC3)ccc2N1C(C)=O (racemic) [Example 280, rac-(2S,3R,4R)-1-acetyl-2-ethyl-3-methyl-4-((6-methylpyridin-2-yl)amino)-N-(piperidin-4-yl)-1,2,3,4-tetrahydroquinoline-6-carboxamide] | ≥ 2
11 | CC[C@H]1[C@H](C)[C@@H](Nc2cccc(C)n2)c2cc(C(=O)NCCNC)ccc2N1C(C)=O (racemic) [Example 281, rac-(2S,3R,4R)-1-acetyl-2-ethyl-3-methyl-N-(2-(methylamino)ethyl)-4-((6-methylpyridin-2-yl)amino)-1,2,3,4-tetrahydroquinoline-6-carboxamide] | ≥ 2
12 | CC[C@H]1[C@H](C)[C@@H](Nc2cccc(C)n2)c2cc(C(=O)NC3CCOCC3)ccc2N1C(C)=O (racemic) [Example 286, rac-(2S,3R,4R)-1-acetyl-2-ethyl-3-methyl-4-((6-methylpyridin-2-yl)amino)-N-(tetrahydro-2H-pyran-4-yl)-1,2,3,4-tetrahydroquinoline-6-carboxamide] | ≥ 2
13 | CC[C@H]1[C@H](C)[C@@H](Nc2cccc(C)n2)c2cc(C(=O)NC3CCS(=O)(=O)CC3)ccc2N1C(C)=O (racemic) [Example 287, rac-(2S,3R,4R)-1-acetyl-N-(1,1-dioxidotetrahydro-2H-thiopyran-4-yl)-2-ethyl-3-methyl-4-((6-methylpyridin-2-yl)amino)-1,2,3,4-tetrahydroquinoline-6-carboxamide] | ≥ 2
14 | CC[C@H]1[C@H](C)[C@@H](Nc2cccc(C)n2)c2cc(C(=O)NC3CCNC3)ccc2N1C(C)=O (mixture of isomers) [Example 289, (rac-2S,3R,4R)-1-acetyl-2-ethyl-3-methyl-4-((6-methylpyridin-2-yl)amino)-N-(pyrrolidin-3-yl)-1,2,3,4-tetrahydroquinoline-6-carboxamide] | ≥ 2
15 | CC(=O)N1c2ccccc2[C@H](Nc2nc(C)cs2)[C@@H](C)[C@@H]1C1CC1 (racemic) [Example 290, rac-1-((2S,3R,4R)-2-cyclopropyl-3-methyl-1-methylthiazol-2-yl)amino)-3,4-dihydroquinolin-1(2H)-yl)ethanone] | ≥ 2
16 | CC[C@H]1[C@H](C)[C@@H](Nc2cccc(C)n2)c2ccccc2N1C(C)=O (single isomer, unassigned) [Example 25a] | ≥ 2
17 | CC(=O)N1c2ccccc2[C@H](Nc2ccccc2)[C@@H](C)[C@@H]1C1CC1 (single isomer, unassigned) [Example 27a] | ≥ 2
18 | CC(=O)N1c2ccccc2[C@H](Nc2cccc(C)n2)[C@@H](C)[C@@H]1C1CC1 (single isomer, unassigned) [Example 29a] | ≥ 2
19 | CC(=O)N1c2cccnc2[C@H](Nc2ccccc2)[C@@H](C)[C@@H]1C1CC1 (single isomer, unassigned) [Example 102a] | ≥ 2
20 | COCCn1cc(-c2ccc3c(c2)[C@H](Nc2cccc(C)n2)[C@@H](C)[C@H](C2CC2)N3C(C)=O)cn1 (single isomer, unassigned) [Example 136a] | ≥ 2
21 | CC[C@H]1[C@H](C)[C@@H](Nc2cccc(C)n2)c2cc(F)ccc2N1C(C)=O (single isomer, unassigned) [Example 146a] | ≥ 2
22 | CC(=O)N1c2ccc(C(N)=O)cc2[C@H](Nc2cccc([C@@H](C)O)n2)[C@@H](C)[C@@H]1C1CC1 (single isomer, unassigned) [Example 368b] | ≥ 2
23 | CC(=O)N1c2ccc(N3CCOCC3)cc2[C@H](Nc2ccccc2)[C@@H](C)[C@@H]1C1CC1 [Example 91a, 1-((2S,3R,4R)-2-cyclopropyyl-3-methyl-6-morpholino-4-(phenylamino)-3,4-dihydroquinolin-1(2H)-yl)ethanone] | ≥ 2
